Results deposited as PubChem BioAssay AID1259308 (NCATS, 2017)
The whole screen tested about 59,000 reagents; below is an unselected part. About 1,510 of all reagents (2.6%) count as active. 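Calls use total luciferase alone and ignore viability, so some active siRNAs may act by altering cell number.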 The numbers tell different reagents against one gene apart. Further read-outs or replicates are left out here. No sequences are given here.

- Screen: 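Candidate targets for better recombinant protein yield in mammalian cells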 (primary screen)
- Cell system: human HEK293 embryonic kidney cells stably expressing firefly luciferase (HEK-CMV-Luc2-Hygro)
- Reagents: single siRNA against human genes, 0.8 pmol siRNA per well
- Duration: 72 h
- Read-out: 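Reporter luminescence and viable-cell signal on separate replicate plates, given as percent of non-targeting control and median/MAD z-scores, plus per-cell luciferase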
- Direction: total luciferase, z-score: higher = more reporter protein produced
- Rule for the call: 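Active when the median/MAD z-score for overall luciferase is greater than 3; a gene was taken forward for validation with new siRNAs if at least two of its three siRNAs passed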
- Meaning of the calls: active = raised luciferase; inactive = no rise

For ARHGEF1 (Rho guanine nucleotide exchange factor 1) #1, what does the deposit list?
total luciferase, z-score: -0.0438; Outcome: inactive

With ARHGEF1 (Rho guanine nucleotide exchange factor 1) #2, what does the deposit list?
total luciferase, z-score: 1.46; Outcome: inactive

For ARHGEF1 (Rho guanine nucleotide exchange factor 1) #3, what was measured?
total luciferase, z-score: -1.57; Outcome: inactive

With CPOX (coproporphyrinogen oxidase) #1, how do the results read?
total luciferase, z-score: 0.31; Outcome: inactive

Which result is listed for CPOX (coproporphyrinogen oxidase) #2?
total luciferase, z-score: -0.356; Outcome: inactive

How did the screen score CPOX (coproporphyrinogen oxidase) #3?
total luciferase, z-score: -0.509; Outcome: inactive

For AKAP1 (A-kinase anchoring protein 1) #1, what does the deposit list?
total luciferase, z-score: -0.986; Outcome: inactive

With AKAP1 (A-kinase anchoring protein 1) #2, what does the deposit list?
total luciferase, z-score: 0.317; Outcome: inactive

How did the screen score AKAP1 (A-kinase anchoring protein 1) #3?
total luciferase, z-score: -2; Outcome: inactive

With PILRB (paired immunoglobin like type 2 receptor beta) #1, what was measured?
total luciferase, z-score: -0.328; Outcome: inactive

What did the screen give for PILRB (paired immunoglobin like type 2 receptor beta) #2?
total luciferase, z-score: -1.42; Outcome: inactive

Which result is listed for PILRB (paired immunoglobin like type 2 receptor beta) #3?
total luciferase, z-score: -0.262; Outcome: inactive

What is on record for ENPP4 (ectonucleotide pyrophosphatase/phosphodiesterase 4) #1?
total luciferase, z-score: -0.263; Outcome: inactive

Which result is listed for ENPP4 (ectonucleotide pyrophosphatase/phosphodiesterase 4) #2?
total luciferase, z-score: 3.02; Outcome: active

For ENPP4 (ectonucleotide pyrophosphatase/phosphodiesterase 4) #3, what does the deposit list?
total luciferase, z-score: 0.0032; Outcome: inactive

With CREB3L1 (cAMP responsive element binding protein 3 like 1) #1, what was measured?
total luciferase, z-score: -1.32; Outcome: inactive

What did the screen give for CREB3L1 (cAMP responsive element binding protein 3 like 1) #2?
total luciferase, z-score: 2.21; Outcome: inactive

How did the screen score CREB3L1 (cAMP responsive element binding protein 3 like 1) #3?
total luciferase, z-score: 1.28; Outcome: inactive

What is on record for KLHDC3 (kelch domain containing 3) #1?
total luciferase, z-score: 1.77; Outcome: inactive

For KLHDC3 (kelch domain containing 3) #2, what does the deposit list?
total luciferase, z-score: -0.831; Outcome: inactive

With KLHDC3 (kelch domain containing 3) #3, what does the deposit list?
total luciferase, z-score: -0.171; Outcome: inactive

For KXD1 (KxDL motif containing 1) #1, what does the deposit list?
total luciferase, z-score: -0.232; Outcome: inactive

How did the screen score KXD1 (KxDL motif containing 1) #2?
total luciferase, z-score: -1.26; Outcome: inactive

With KXD1 (KxDL motif containing 1) #3, how do the results read?
total luciferase, z-score: -0.825; Outcome: inactive

For TBCEL (tubulin folding cofactor E like) #1, how do the results read?
total luciferase, z-score: 1.19; Outcome: inactive

How did the screen score TBCEL (tubulin folding cofactor E like) #2?
total luciferase, z-score: 2.61; Outcome: inactive

With TBCEL (tubulin folding cofactor E like) #3, how do the results read?
total luciferase, z-score: -2.08; Outcome: inactive

With KCNJ16 (potassium inwardly rectifying channel subfamily J member 16) #1, what does the deposit list?
total luciferase, z-score: 1.36; Outcome: inactive

What is on record for KCNJ16 (potassium inwardly rectifying channel subfamily J member 16) #2?
total luciferase, z-score: -0.0479; Outcome: inactive

How did the screen score KCNJ16 (potassium inwardly rectifying channel subfamily J member 16) #3?
total luciferase, z-score: -0.454; Outcome: inactive

For FERMT2 (FERM domain containing kindlin 2) #1, how do the results read?
total luciferase, z-score: 0.46; Outcome: inactive

Which result is listed for FERMT2 (FERM domain containing kindlin 2) #2?
total luciferase, z-score: 3.33; Outcome: active

For FERMT2 (FERM domain containing kindlin 2) #3, what was measured?
total luciferase, z-score: -0.88; Outcome: inactive

5 entries already listed, arranged by “total luciferase, z-score”, highest first:
TBCEL (tubulin folding cofactor E like) #1 — total luciferase, z-score: 1.19; Outcome: inactive
KLHDC3 (kelch domain containing 3) #3 — total luciferase, z-score: -0.171; Outcome: inactive
KXD1 (KxDL motif containing 1) #1 — total luciferase, z-score: -0.232; Outcome: inactive
KXD1 (KxDL motif containing 1) #3 — total luciferase, z-score: -0.825; Outcome: inactive
KXD1 (KxDL motif containing 1) #2 — total luciferase, z-score: -1.26; Outcome: inactive
